Earlier results, collected in patent publication US20080194493A1, “Compositions Containing D-Carnosine” (priority 2004, published 2008).
At least one structure is not confirmed: it was looked up by name or label, or the drawing left a doubt.

Conditions: cited from earlier work

## NCCC(=O)N[C@H](Cc1cnc[nH]1)C(=O)O [D-carnosine]
  rate of reaction with dihydroxyacetone compared with L-carnosine: substantially similar rate
